Inconclusive means that the source gave no clear call. Such entries were picked first, then a sample of the others. Potencies beside an inconclusive call are fits to weak or partial responses and may not hold up. Active and inactive are the calls of the source. Calls come from the whole dose curve; as a rule, active = well fitted activation curve with a large enough effect; inconclusive = small, poorly fitted or top-dose-only effect; inactive = no such curve, though single readings can be large or run the other way.
target: Cellular tumor antigen p53 (Homo sapiens) (UniProt P04637); test: Confirmatory qHTS for small molecule compounds that upregulate eGFP-tagged delta133p53alpha (in C-terminal) cells.; details: delta133p53alpha-eGFP (C-terminal) reporter cells, GFP fluorescence upregulation; series mostly up to 57.5 µM; activation (upregulation): at the top concentration
Source text: Assay Development and Screening Technology
National Center for Advancing Translational Sciences (NCATS),
National Institute of Health (NIH), Rockville, Maryland
Cellular senescence (CS) is one of the hallmarks of aging and age-related diseases. Senescent cells are characterized by an irreversible growth arrest, an increase in senescence-associated beta-galactosidase (SA-beta-gal) activity and p16INK4a expression, an activation of the DNA damage response pathways, and the emergence of a senescence-associated secretory phenotype (SASP).
Delta133p53alpha, a human/primate-specific p53 protein isoform, delays or inhibits the induction of CS and SASP in various types of human cells, including progeria-derived fibroblasts, primary normal astrocytes, and CD8+ T lymphocytes. Induction of delta133p53alpha with small molecule compounds may provide therapeutic opportunities for inhibition of senescence/SASP-associated pathologies in progeria syndromes, astrocyte-mediated neuroprotection in neurodegenerative diseases, and possibly prevention and treatment of a wider range of senescence- and aging-associated diseases.
Here we report the development and validation of a cell-based quantitative high throughput screening (qHTS) assay in 1,536-well format. This qHTS assay uses the NCI-H358 cell line with doxycycline-inducible expression of enhanced green fluorescent protein (eGFP)-tagged delta133p53alpha, which allows efficient and highly quantitative measurement of the protein levels.
PROTOCOL TABLE (as described by Inglese J, Shamu CE and Guy RK. 2007)
SEQUENCE No. (e.g., 1, 2, 3, etc.); […] (e.g., Cells, Incubation, Reagent, etc.); VALUE; DESCRIPTION.
1; Cells; 4uL; 800 doxycycline treated cells / well in doxycycline-free media, 1536-well black, clear-bottom low base Aurora microplates.
2; Compounds; 23 nL; Kalypsis pin tool (Wako) equipped with 1536-well pin heads, 5-azacytidine positive control.
3; Incubation; 24 hr; 37C, 5% CO2; 95% relative humidity.
4; Aspiration; 1x; BioTek EL406 washer dispenser (Agilent).
5; Fixing; 3.5% paraformaldehyde, BioTek EL406 washer dispenser (Agilent).
6; Washing; 1x PBS; BioTek EL406 washer dispenser (Agilent).
7; Nuclei staining; 1:1000 dilution of Hoechst 33342 (Thermofisher), BioTek EL406 washer dispenser (Agilent).
8; Incubation; 20 min; in the dark at room temperature.
9; Washing; 2x, 1x PBS (ThermoFisher), BioTek EL406 washer dispenser (Agilent).
10; Reagent; 10 uL; 1x PBS per well, sealed with clear adhesive tape.
11; Detection; Fluorescence, Acumen eX3 laser scanning cytometer (STP Labtech), GFP filters […].
NOTES (numbers refer to sequence numbers above).
1. NCI-H358 cells expressing eGFP-tagged delta133p53alpha were grown in T75 culture flasks and treated with doxycycline for 24h, at 10 ng/ml for eGFP-D133p53a cells (N-terminal cell) and 100 ng/ml for D133p53a-eGFP cells (C-terminal cells). Cells were trypsinized, counted using a Counted 3 Automated Cell Counter (Thermo Fisher), and diluted to a concentration of 200,000 cells/ml. A Multidrop Combi Reagent Dispenser (ThermoFisher) was used to dispense 800 cells/well in […] of doxycycline-free media, into 1536-well black/clear bottom low base plates (AuroraMicroplates).
2. After plating cells, 23 nl of compound library, DMSO vehicle control or positive control (5-azacytidine) were transferred by Pin Tool (Wako). The plate map layout was the same for each plate: (column 1) non-doxycycline treated cells + DMSO vehicle control; (column 2) doxycycline treated cells + DMSO vehicle control baseline; (column 3) doxycycline treated cells + positive control 57.5 uM final concentration 5-azacytidine; (column 4) doxycycline treated cells + serial dilution of 5-azacytidine, 16-point 1:2 titration spanning 1.8 nM to […] final concentration; (columns 5-48) doxycycline treated cells + titration of library compounds.
3. Cells were incubated at 37 °C, 5 % CO2, 95% RH with breathable metal lid for 24h.
4-10. […]

By UniProt entry, the sequences of proteins in these tests, tags left out.
UniProt P04637, whole entry, looked up: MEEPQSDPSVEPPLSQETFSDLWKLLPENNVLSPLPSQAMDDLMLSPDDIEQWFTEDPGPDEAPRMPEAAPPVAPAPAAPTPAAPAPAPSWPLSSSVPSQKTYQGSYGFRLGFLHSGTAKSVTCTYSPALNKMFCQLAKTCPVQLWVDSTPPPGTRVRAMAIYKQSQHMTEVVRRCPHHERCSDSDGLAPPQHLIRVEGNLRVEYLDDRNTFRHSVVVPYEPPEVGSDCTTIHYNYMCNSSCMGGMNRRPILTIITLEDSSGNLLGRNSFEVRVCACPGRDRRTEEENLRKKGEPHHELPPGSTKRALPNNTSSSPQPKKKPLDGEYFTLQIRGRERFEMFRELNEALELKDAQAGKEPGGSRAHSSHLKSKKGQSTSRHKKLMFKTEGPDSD

SMILES	Potency	activation (upregulation)
C[C@]12Cc3cn4c(nc3C=C1CCC1C2CC[C@@]2(C)[C@H]1CC[C@@]2(O)C#N)nc1ccccc14 (stereo partly drawn)	active: 19.3 µM	–
CN1C2CCC1CC(OC(c1ccccc1)c1ccccc1N)C2 (stereo not drawn)	–	inactive: -13.1%
C[C@@H]1O[C@@H](O[C@H]2C[C@@H](O)[C@]3(CO)[C@@H]4C(CC[C@]3(O)C2)[C@@]2(O)CC[C@H]([C@@H]3COC(=O)C3)[C@@]2(C)C[C@H]4O)[C@H](O)[C@H](O)[C@H]1O (stereo partly drawn)	inconclusive: 4.85 µM [activator, full curve, poor fit]	–
c1ccc2c(c1)OCC(C1=NCCN1)O2 (stereo not drawn)	–	inactive: 18.9%
CCn1cnc2c(Nc3cccc(Cl)c3)nc(N[C@@H]3CCCC[C@@H]3N)nc21	active: 9.68 µM	–
O=C1/C(=C\c2ccccc2)C[C@@]2(O)[C@H]3Cc4ccc(O)c5c4[C@@]2(CCN3CC2CC2)[C@H]1O5	active: 15.3 µM	–
CC(C)(C)c1cc(C=C(C#N)C#N)cc(C(C)(C)C)c1O	inconclusive: 3.43 µM [activator, full curve]	–
Ic1ccccc1CNC1C2CCN(CC2)C1C(c1ccccc1)c1ccccc1 (stereo not drawn)	inconclusive: 13.7 µM [activator, single point]	–
